## Primary screen of a compound library

Protein sequences, listed by entry. Tags and fused reporters are not part of them.
UniProt E9BF75, entry or part of it: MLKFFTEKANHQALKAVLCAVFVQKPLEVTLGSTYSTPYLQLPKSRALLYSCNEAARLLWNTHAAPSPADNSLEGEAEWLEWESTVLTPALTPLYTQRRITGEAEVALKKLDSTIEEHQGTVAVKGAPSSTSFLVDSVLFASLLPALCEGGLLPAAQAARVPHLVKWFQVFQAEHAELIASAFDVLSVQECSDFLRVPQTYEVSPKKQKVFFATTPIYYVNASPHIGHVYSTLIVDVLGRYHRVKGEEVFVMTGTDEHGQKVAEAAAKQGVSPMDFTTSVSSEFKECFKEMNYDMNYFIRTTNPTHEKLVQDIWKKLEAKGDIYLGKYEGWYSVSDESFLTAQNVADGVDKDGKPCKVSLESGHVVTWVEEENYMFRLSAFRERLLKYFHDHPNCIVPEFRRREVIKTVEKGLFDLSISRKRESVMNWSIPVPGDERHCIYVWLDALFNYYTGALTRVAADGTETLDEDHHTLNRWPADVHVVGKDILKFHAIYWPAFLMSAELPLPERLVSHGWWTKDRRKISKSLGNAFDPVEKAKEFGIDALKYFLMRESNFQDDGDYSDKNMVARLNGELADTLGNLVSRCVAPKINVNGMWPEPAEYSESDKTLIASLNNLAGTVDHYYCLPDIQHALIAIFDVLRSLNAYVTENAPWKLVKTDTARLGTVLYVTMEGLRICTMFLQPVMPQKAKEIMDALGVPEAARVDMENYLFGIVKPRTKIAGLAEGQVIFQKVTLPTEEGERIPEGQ

The values are deposited in ChEMBL (CHEMBL3988442, “University of Dundee, Small-Polar-MMV Screening Library” (2021)).

All values are in %.
How 0% and 100% were set is not recorded. Most values in the screen are low, and negative values occur.
The compounds are a random part of those screened.
A dash means the value is not listed here; it may have been measured.

LdMetRS: 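Primary screen of methionyl-tRNA synthetase; the read-out is not stated. Target: Methionyl-tRNA synthetase (putative), Leishmania donovani (UniProt E9BF75). The test concentration is not given. Values are per cent inhibition. Size under these conditions: about 68,000 compounds, about 24 of them at 50% or above in at least one test.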
Mtb heat-shock: 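Assay on Mycobacterium tuberculosis, filed only as a heat shock assay from Cornell; the read-out is not stated. The concentration is filed as 10 mM, unlikely as a test dose, so the dose is not known. The record gives no direction; compounds that gave an IC50 in retests scored well above the rest, so higher reads as stronger inhibition. About 69,000 compounds were tested under these conditions; 1.4% (about 930) showed 50% or more at least once.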

| # | structure | LdMetRS | Mtb heat-shock |
|---|---|---|---|
| 1 | `COCCN(C/C=C/c1ccccc1)Cc1nccs1` | -1.804 | 1.581 |
| 2 | `CC(=O)Nc1nc(C(=O)N2CCCC2c2noc(C)n2)cs1` (stereo not given) | -5.263 | -0.1672 |
| 3 | `COCC(O)CN1CCC(NC(=O)c2cccc(C)c2)CC1` (stereo not given) | 10.03 | -32.81 |
| 4 | `COc1ccc(C(=O)N2CCCC2c2ccco2)cc1OC` (stereo not given) | 7.843 | 4.509 |
| 5 | `CC(C)CN1CCN(C(=O)c2ccn(C)c(=O)c2)CC1` | 14.61 | -18.14 |
| 6 | `c1cn2c(n1)CN(CC1CC1)CC(CN1CCOCC1)C2` (stereo not given) | 16.74 | - |
| 7 | `CN(C(=O)NC1CC1)C1CCN(c2ccc(Cl)cc2)CC1` | -13.47 | -3.685 |
| 8 | `[H][C@@]12CCN(S(=O)(=O)C3CC3)C[C@@]1([H])O[C@@H](c1ccnc(C)n1)C2` | - | -20.27 |
| 9 | `Cn1cc(CNCCNc2ncc(Cl)cc2Cl)cn1` | 1.955 | -29.61 |
| 10 | `O=C(O)C(F)(F)F.[H][C@@]12CCCO[C@]1([H])[C@H](NS(C)(=O)=O)CN(Cc1c(C)noc1C)C2` | - | -15.29 |
| 11 | `N#Cc1cccc(S(=O)(=O)N(CC2CCC2)c2cn[nH]c2)c1` | 7.143 | -2.239 |
| 12 | `[H][C@@]12CN(Cc3cccc(OC)c3)CC[C@]1([H])N(C(C)=O)C[C@H]2c1ccsc1` | - | -22.14 |
| 13 | `CCNc1cc2c(nn1)CCN(C(=O)c1ccnc(-n3ccnc3)c1)C2` | 15.85 | 20.42 |
| 14 | `Cc1occc1C(=O)N1CCCN(Cc2ncc(Cl)n2C)CC1` | 4.57 | -41.62 |
| 15 | `COc1ccc(CN2CCc3ncnc(C4CCOC4)c3CC2)cc1` (stereo not given) | 13.81 | - |
| 16 | `COc1ccc(F)cc1C(=O)N1CCCC(CNS(C)(=O)=O)C1` (stereo not given) | 18.71 | -4.389 |
| 17 | `Cc1nc(N2CCOCC2)nc2c1CCN(C(=O)NC1CCCC1)CC2` | 0.4149 | -14.24 |
| 18 | `[H][C@]12CC[C@@]3(N=C(C)N(CC(C)C)C3=O)[C@@]1([H])CN(S(=O)(=O)CC)C2` | - | 11.81 |
| 19 | `COCCN1CCc2ccccc2NCCC1=O` | 5.135 | 7.593 |
| 20 | `Cc1cnn(CCNCc2cc(=O)n3cc(Cl)ccc3n2)c1` | 11.02 | -1.107 |
| 21 | `CC(C(=O)N1CCN(c2cnccn2)CC1)n1cncn1` (stereo not given) | 15.97 | -9.586 |
| 22 | `Cc1ccccc1-c1cc(CC2(C(=O)O)CCOCC2)on1` | 14.58 | 0.02594 |
| 23 | `CCC(=O)N1C[C@@H]2CCN(c3cnccn3)C[C@@H]2C1` | -3.526 | - |
| 24 | `CCN1Cc2ccccc2CC2(CCN(C)CC2)C1=O` | 15.3 | 17.49 |
| 25 | `CNC(=O)[C@H]1CC[C@@H]2[C@@H](CCN2c2ncccn2)O1` | 0.7519 | - |
| 26 | `COC[C@@]12CC[C@@H](N3CCOCC3)C[C@H]1CCN(c1cc(C)ccn1)C2` | 15.93 | - |
| 27 | `O=C(Cc1ccccn1)N1C[C@H]2CN(Cc3ccccn3)C[C@H]2C1` | 8.798 | - |
| 28 | `CCc1ccccc1-c1cc(OC)nc(N)n1` | 8.184 | -13.58 |
| 29 | `CC(Cn1cccn1)NC(=O)N(C)Cc1ccc(Cl)s1` (stereo not given) | 6.103 | 10.3 |
| 30 | `Cc1cc(C(=O)N2CCc3nc(C4CCCN4)ncc3C2)cs1.Cl` (stereo not given) | - | -10.19 |
| 31 | `Cc1nc(C)c(C(=O)N2CCc3[nH]nc(COc4ccccc4)c3C2)s1` | 11.96 | 14.69 |
| 32 | `CCn1c(SCC(N)=O)nnc1-c1csc2c1CCCC2` | 7.527 | 8.795 |
| 33 | `Cc1nc(C)c(C(=O)N2Cc3ccccc3OCC2Cn2ccnc2)s1` (stereo not given) | 14.29 | -8.214 |
| 34 | `O=C1CC(c2ccc(F)cc2)c2cnn(C3CCCC3)c2N1` (stereo not given) | 16.42 | 19.82 |
| 35 | `CN1CCc2c(C#N)c(NCC3CCCO3)n3cnnc3c2C1.Cl` (stereo not given) | - | -32.1 |
| 36 | `Cl.O=C(C1CCC1)N1CCC2(CCNCC2)C1` | - | -26.4 |
| 37 | `Cn1ncc2c(=O)[nH]c(CN(Cc3cccc(F)c3)C3CC3)nc21` | 8.502 | 25.17 |
| 38 | `CCn1cc(CN(C)S(=O)(=O)c2cnn(CC)c2C)c(C)n1` | 6.643 | 95.67 |
| 39 | `O=S(=O)(NCC1(O)CCOc2ccccc21)c1ccccc1F` (stereo not given) | 15.03 | 13.26 |
| 40 | `Cc1cc(C)n(CC2CN(Cc3cccc(C(N)=O)c3)CCO2)n1` (stereo not given) | 8.571 | -15.25 |
| 41 | `Cc1cc(F)ccc1NS(=O)(=O)c1cc2c(c(C(=O)O)c1)OCCO2` | 8.101 | -3.369 |
| 42 | `O=C(c1ccccc1-n1cccn1)N1CCCN(c2cccnn2)CC1` | 13.19 | -2.661 |
| 43 | `[H][C@@]12CCC(=O)N(CCC3=CCCCC3)[C@]1([H])CCN(C1CCN(C)CC1)C2` | - | -11.77 |
| 44 | `O=C(O)C(F)(F)F.[H][C@@]12COC[C@@H](C(=O)N3CCCCO3)[C@]1([H])CN(C1CCOCC1)C2` | - | 3.998 |
| 45 | `Cc1ncnc(NCc2cc3n(n2)CCCN(S(C)(=O)=O)C3)c1C` | 12.59 | 12.21 |
| 46 | `[H][C@@]12CCN(Cc3c(C)noc3C)[C@]1([H])CC[C@H](c1nnc(C)o1)O2` | - | 27.96 |
| 47 | `CNC(=O)C(C)NC(=O)c1cc(COc2ccc(OC)cc2Cl)[nH]n1` (stereo not given) | 17.93 | -5.238 |
| 48 | `Cc1nc(CN2CCN3C[C@H](Oc4cncnc4)C[C@H]3C2)cs1` | 12.47 | - |
| 49 | `O=C1N(c2ccccc2)C[C@H]2CN(C3CCC3)CCN12` | 12.64 | - |
| 50 | `Cc1ccc2cnn(CCC(=O)NCc3c(C)nn(C)c3C)c2c1` | 15.75 | 4.914 |
| 51 | `Cc1cccc(C(=O)N2CCC[C@]3(C[C@@H](OCC4CC4)CO3)C2)n1` | 10.45 | - |
| 52 | `CSCCN1CCC(NC(=O)c2cccc(C3CCCNC3)c2)CC1` (stereo not given) | 9.288 | -19.79 |
| 53 | `COC(=O)CNC(=O)C1(NC(=O)c2ccc3[nH]ncc3c2)CCCC1` | 15.06 | 18.81 |
| 54 | `COC(=O)c1cccc(-c2c[nH]c(C)n2)c1` | 8.591 | 1.932 |
| 55 | `CCc1nc(CN2CCN(C(=O)CCc3ccccc3)CC2)cs1` | 17.36 | -6.563 |
| 56 | `[H][C@]12CCC(=O)N(c3cccnc3)[C@@]1([H])CCN2C(=O)c1cccs1` | - | -3.741 |
| 57 | `O=C1[C@H]2CN(CC3CC3)C[C@H]2CN1c1ccsc1` | 7.071 | - |
| 58 | `CCc1oc(C(=O)NC(C)c2ncn[nH]2)cc1CN1CCCC1` (stereo not given) | 16.1 | -20.86 |
| 59 | `O=C(CCc1cccs1)N1CCC(N2CCNC2=O)CC1` | 10.42 | 7.58 |
| 60 | `Cc1cc(C)n(CC2CCCN2C(=O)c2cnn(C)c2C2CC2)n1` (stereo not given) | 2.222 | 6.748 |
| 61 | `CCn1cc(CN2CCCN(C(=O)CCc3ccncc3)CC2)cn1` | 4.453 | -35.14 |
| 62 | `COCCN1C(=O)C2(CCC(C(=O)Nc3cccc(C)c3)CC2)N=C1C` (stereo not given) | 10.8 | -8.749 |
| 63 | `CSc1ccc2cc(CN(C)CCCN(C)C)c(=O)[nH]c2c1` | 3.833 | 5.028 |
| 64 | `CN1CCCC(Cc2cncc(C(=O)NC3CC3)c2)C1` (stereo not given) | 0.6472 | -8.489 |
| 65 | `COc1ccc2[nH]cc(C3CCN(CCC(N)=O)CC3)c2c1` | 17.01 | -14.55 |

For reference, 7 entries once more:

{"structure": "COc1ccc(F)cc1C(=O)N1CCCC(CNS(C)(=O)=O)C1", "stereo": "stereo not given", "LdMetRS": 18.71, "Mtb heat-shock": -4.389}
{"structure": "O=C1[C@H]2CN(CC3CC3)C[C@H]2CN1c1ccsc1", "LdMetRS": 7.071}
{"structure": "CCn1cc(CN(C)S(=O)(=O)c2cnn(CC)c2C)c(C)n1", "LdMetRS": 6.643, "Mtb heat-shock": 95.67}
{"structure": "CCc1ccccc1-c1cc(OC)nc(N)n1", "LdMetRS": 8.184, "Mtb heat-shock": -13.58}
{"structure": "Cc1cc(C)n(CC2CN(Cc3cccc(C(N)=O)c3)CCO2)n1", "stereo": "stereo not given", "LdMetRS": 8.571, "Mtb heat-shock": -15.25}
{"structure": "O=C(Cc1ccccn1)N1C[C@H]2CN(Cc3ccccn3)C[C@H]2C1", "LdMetRS": 8.798}
{"structure": "Cc1ccccc1-c1cc(CC2(C(=O)O)CCOCC2)on1", "LdMetRS": 14.58, "Mtb heat-shock": 0.02594}